The source of these data is article PMC7819943, “Rice protein-binding microarrays: a tool to detect cis-acting elements near promoter regions in rice”.

Amino acid sequences for entries named in this document (tags omitted).
UniProt Q0JBA9, entry or part of it: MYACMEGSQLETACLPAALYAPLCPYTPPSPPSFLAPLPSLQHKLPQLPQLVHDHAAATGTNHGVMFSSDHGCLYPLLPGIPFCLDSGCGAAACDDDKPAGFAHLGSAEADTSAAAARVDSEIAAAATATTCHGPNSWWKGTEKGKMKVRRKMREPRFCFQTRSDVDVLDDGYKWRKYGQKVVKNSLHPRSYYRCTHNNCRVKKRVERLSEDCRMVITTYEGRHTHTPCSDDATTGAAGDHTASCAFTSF

Some of the results follow.

In the assay the target is OsWRKY34 (Oryza sativa, UniProt Q0JBA9 1-250). Briefly: protein-binding microarray (RPBM); PBS, 2% BSA, 51.3 ng/ul salmon testes DNA, 50 uM zinc acetate, 200 nM TF, 25 C, 1 h; high values mean tight binding. As to conditions: protein: recombinant; tags: N-terminal polyhistidine and DsRed monomer fusion (pET32a); label: CyDye5-dUTP incorporated in the synthesized complementary strand; 3' TTTTT single-stranded linker to array surface; dsDNA, one strand shown. Put shortly: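 Binding signal is reported as fluorescence intensity per feature (arbitrary units) from an Axon 4000B scanner. Incubation used 200 nM of each Ni–NTA-purified, N-terminally polyhistidine- and DsRed-fused transcription factor from E. coli BL21-CodonPlus on a double-stranded custom Agilent array for 1 h at 25 °C, with 50 µM zinc acetate in the buffer, followed by washing.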
With “ACTTTTCTTAGTTTCCACGTCGCAGTTTCTCTTCTCTCCTCGGAGTCACCTAGTGCAG”, the binding signal is 9870 fluorescence intensity (a.u.). “AGATGGTTTCTCCACCAGTGTGTGCTTTTGACACATGTATCGGAGTCACCTAGTGCAG”: the binding signal is 8600 fluorescence intensity (a.u.). Regarding “GAGAGGAGGTGGTGGGAAGTGGCGGCTAGGGTTTGGGTGGCGGAGTCACCTAGTGCAG”, the binding signal was 11300 fluorescence intensity (a.u.). As for “GACTCCTCCGTCGCGATCTCCGCCGCGACCTCGTCCACGGCGGAGTCACCTAGTGCAG”, the binding signal is 8550 fluorescence intensity (a.u.). Regarding “TTCCCACCGCTGCCGCTCGTCCCGTCTCACCGATCCCTCCCGGAGTCACCTAGTGCAG”, the binding signal was 10300 fluorescence intensity (a.u.). To “TCTCTCTTCTTCAACCTCTGTACCTCTCTTCTCTTCTCCACGGAGTCACCTAGTGCAG” belongs 8850 fluorescence intensity (a.u.); to “CTTATTCTCGTTCTCCTCTTCATCTCGTTTTTCCCTTTCTCGGAGTCACCTAGTGCAG”, 11200 fluorescence intensity (a.u.); to “CAACCACAACACCGTCTTCTTCGACGTCAACATGCGCGCCCGGAGTCACCTAGTGCAG”, 8540 fluorescence intensity (a.u.).

On to “GCATACATCTCTACTACCTGCATCTCCATCTCAAATCAAACGGAGTCACCTAGTGCAG”, for which the binding signal is 10400 fluorescence intensity (a.u.). With “TCGGTTTCATACGTGGGGTCTGTTGGTGGAGGTGTTGCCACGGAGTCACCTAGTGCAG”, the binding signal is 9440 fluorescence intensity (a.u.). “TGTTATATATATATTGATGTTGGGTGAATCGACTTGACTCCGGAGTCACCTAGTGCAG”: the binding signal is 8090 fluorescence intensity (a.u.). On to “CCTAAATCGTATCTCGTTATCTAGTGTTAGTTTATAATTTCGGAGTCACCTAGTGCAG”, for which the binding signal is 9470 fluorescence intensity (a.u.).

Regarding “TTGACTTTCGAGTTTCGACCAATATCGGTATATTCCGTTCCGGAGTCACCTAGTGCAG”, the binding signal was 9300 fluorescence intensity (a.u.). On to “GATCTTCTCTAGTTTCCCAATCAAATCCTCTGATGTCCAACGGAGTCACCTAGTGCAG”, for which the binding signal was 8820 fluorescence intensity (a.u.).

In the case of “CCCAACATCTCAATGACTTTCTCTCGTCTCATCTTCTTCCCGGAGTCACCTAGTGCAG”, the binding signal is 8590 fluorescence intensity (a.u.).

As for “GGGTCCGGGTGTGTGGGGTGGGGAAGCGAGGCGAAACCCGCGGAGTCACCTAGTGCAG”, the binding signal is 9320 fluorescence intensity (a.u.). With “GACCCATGGCTCGCCGCGCACGGTGACCTCTCCCACGTCTCGGAGTCACCTAGTGCAG”, the binding signal is 8340 fluorescence intensity (a.u.). As to “ACATCCGATTCCGCACTGCTGTGCTGCCCAATTCCTCCACCGGAGTCACCTAGTGCAG”, the binding signal was 8100 fluorescence intensity (a.u.). For “GATTTTATTTGATCTTTTTCTTTTTTTATCAATTCAAATTCGGAGTCACCTAGTGCAG”, the binding signal is 10000 fluorescence intensity (a.u.). For the sequence “GTTTCTGTGCCTTTTTGCTCCATTTCATGGATTATTATGACGGAGTCACCTAGTGCAG”, the binding signal is 9540 fluorescence intensity (a.u.). In the case of “GTCGGTGTTGCGCTTTGCCCTTGTACACGTGCCGTACTAGCGGAGTCACCTAGTGCAG”, the binding signal is 10400 fluorescence intensity (a.u.). For “TGGTGATCCATGTTTTATATTCTGCATTACTCTTAATTTGCGGAGTCACCTAGTGCAG”, the binding signal is 8730 fluorescence intensity (a.u.). With “TCCCCAACCACCTTCCCCGCCGCCCTCGCGCTTCCGGCATCGGAGTCACCTAGTGCAG”, the binding signal was 8100 fluorescence intensity (a.u.). Regarding “TACACATATATACATCTCTTTGCATATTTATATTCTTGTCCGGAGTCACCTAGTGCAG”, the binding signal is 9210 fluorescence intensity (a.u.). Consider “TTACCTGCTCTCCACCAACCATTCTTTCCATGCATTCGTTCGGAGTCACCTAGTGCAG”, for which the binding signal was 11500 fluorescence intensity (a.u.). For the sequence “TGCGGCCGCGCCCATCCCGCCAGTTCAGTCACCAACCCACCGGAGTCACCTAGTGCAG”, the binding signal is 8170 fluorescence intensity (a.u.).

Take “TGTGTTCAACGTTTTTGGTGGTATGTCGCTATAGCATTTCCGGAGTCACCTAGTGCAG”: the binding signal is 8300 fluorescence intensity (a.u.).

For the sequence “CATTTTCTCCAGGCCCATTAAGCCCATAGGTCATCGTATCCGGAGTCACCTAGTGCAG”, the binding signal is 8680 fluorescence intensity (a.u.). Take “TCTTAGTATCCTTGGTTGTTGGATTTTTAGTTTGCTTTATCGGAGTCACCTAGTGCAG”: the binding signal is 9350 fluorescence intensity (a.u.). Next, “TATGTGATTTCTCTTTCATATGCTACACATTTTTTTTCAACGGAGTCACCTAGTGCAG”: 10300 fluorescence intensity (a.u.). On to “CCTAGCTGCACAAGCTTAACTTCTAGTTTTTGTTTATGTTCGGAGTCACCTAGTGCAG”, for which the binding signal was 9210 fluorescence intensity (a.u.). For the sequence “TCGCGCTCACCACGATGGACTTTTCCTAGAGAGGGATCTACGGAGTCACCTAGTGCAG”, the binding signal is 8650 fluorescence intensity (a.u.). For the sequence “CACTCATTCCATTCCCCAACCCCAACCATTCCTATTTCTACGGAGTCACCTAGTGCAG”, the binding signal is 8510 fluorescence intensity (a.u.). As to “AAACATTAGGTGGGGTGGATTTTTTCCATGTGTTATGTTTCGGAGTCACCTAGTGCAG”, the binding signal was 8620 fluorescence intensity (a.u.).

Turning to “AACTCTTCACTCTCGTAGGCGATCTCGATCTTAACATGCTCGGAGTCACCTAGTGCAG”, the binding signal is 9300 fluorescence intensity (a.u.). On to “ATCATTTGTCTCGCGACGAAAACTTGCGTTGACCACCCACCGGAGTCACCTAGTGCAG”, for which the binding signal is 17500 fluorescence intensity (a.u.).

As to “CTCTCATGTATATACATTAATTATGTTTTTGTCCCCATTTCGGAGTCACCTAGTGCAG”, the binding signal is 9950 fluorescence intensity (a.u.). Regarding “AGGTACCTTTTGGTTGGGAAGATGTTTCATCTCCTGTCATCGGAGTCACCTAGTGCAG”, the binding signal is 8190 fluorescence intensity (a.u.). Turning to “GTGGGTGGAAGGCTAGAAGGCGATGGGCGCGGTGGATTCCCGGAGTCACCTAGTGCAG”, the binding signal was 11300 fluorescence intensity (a.u.). Take “GCATTTCATTTGATTTAACACTTTTACCCCTTATCTCCAACGGAGTCACCTAGTGCAG”: the binding signal was 9130 fluorescence intensity (a.u.). Next, “TATCATTTACTCATTGTAACGCACGTGTATTTTTTCTAGGCGGAGTCACCTAGTGCAG”: 9880 fluorescence intensity (a.u.). On to “ACCGATTGTCCGATTCGAGTTTCTTAATTTGTCTTTTTTTCGGAGTCACCTAGTGCAG”, for which the binding signal was 12000 fluorescence intensity (a.u.). With “AGAGTTTAAATGTGTCTTTTTGGTGGGTAGAAAATTATTTCGGAGTCACCTAGTGCAG”, the binding signal was 10400 fluorescence intensity (a.u.). As for “TTTCTTATCTGTAGTCCTATTTTTTCCCGAGAAATTAATCCGGAGTCACCTAGTGCAG”, the binding signal was 8670 fluorescence intensity (a.u.). In the case of “ACCGTGACCGTGCGCTTCTCGCCTTTCGCCTTCGCCTCCACGGAGTCACCTAGTGCAG”, the binding signal is 9350 fluorescence intensity (a.u.). Consider “GCGTCTGGGGCCTCGGGCGGCGCGCGCGGGGAGGGGCGTGCGGAGTCACCTAGTGCAG”, for which the binding signal is 10500 fluorescence intensity (a.u.). On to “AGATGGCATTCCCAGTTTAGTCATGTACACCGTAGCCGTACGGAGTCACCTAGTGCAG”, for which the binding signal was 8360 fluorescence intensity (a.u.).

As for “TCCGTTTCCATTCCCTGGCACACGCCATTCGCCTCGCTTGCGGAGTCACCTAGTGCAG”, the binding signal was 10800 fluorescence intensity (a.u.). With “AGTCAAACACATATTGACCAACCAACCCCTGCATTGACCTCGGAGTCACCTAGTGCAG”, the binding signal was 8320 fluorescence intensity (a.u.).

For “CTTTTACATAAATGTGAAGTTCTTTTTTTTTTGCGGGGATCGGAGTCACCTAGTGCAG”, the binding signal was 8500 fluorescence intensity (a.u.). Next, “GTCCATCGCCGCGACCCACGCCACCACCGTTACGGACATCCGGAGTCACCTAGTGCAG”: 9510 fluorescence intensity (a.u.); “CACAGATCATTACACACTGTTTGAGCATCTCTCTATTCCTCGGAGTCACCTAGTGCAG”: 8320 fluorescence intensity (a.u.); “TTCCTACATTTTCACTCCTACTAGCTAGCACGTGAAGAAACGGAGTCACCTAGTGCAG”: 8750 fluorescence intensity (a.u.). Turning to “TACATCCCTTGCCATCTCCATCGCCGGCTTCCTCGCCATTCGGAGTCACCTAGTGCAG”, the binding signal was 17100 fluorescence intensity (a.u.).
